Reference: paper PMC6271009, “Design and Synthesis of Thiazolo[5,4-f]quinazolines as DYRK1A Inhibitors, Part II” (Molecules, 2014)

Chains of the proteins cited; added tags and fusions are not shown.
UniProt Q9Y463, whole entry: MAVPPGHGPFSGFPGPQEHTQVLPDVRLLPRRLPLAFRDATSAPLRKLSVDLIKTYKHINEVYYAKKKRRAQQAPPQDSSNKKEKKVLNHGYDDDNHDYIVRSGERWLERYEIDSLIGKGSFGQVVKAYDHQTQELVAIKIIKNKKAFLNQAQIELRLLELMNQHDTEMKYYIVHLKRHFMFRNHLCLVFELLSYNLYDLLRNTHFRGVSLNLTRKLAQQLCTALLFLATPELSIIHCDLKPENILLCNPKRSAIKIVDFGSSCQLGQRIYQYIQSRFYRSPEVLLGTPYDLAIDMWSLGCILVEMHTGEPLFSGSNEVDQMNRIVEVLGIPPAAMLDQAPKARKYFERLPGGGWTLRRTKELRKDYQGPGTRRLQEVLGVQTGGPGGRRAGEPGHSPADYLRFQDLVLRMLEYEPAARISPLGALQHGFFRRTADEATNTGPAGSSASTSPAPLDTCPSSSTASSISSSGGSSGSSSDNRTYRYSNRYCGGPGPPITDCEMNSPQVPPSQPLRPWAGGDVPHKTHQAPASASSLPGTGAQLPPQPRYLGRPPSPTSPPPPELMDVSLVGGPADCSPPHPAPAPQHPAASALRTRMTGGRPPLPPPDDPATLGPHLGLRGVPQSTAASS

Target: T1, DYRK1B (Homo sapiens, UniProt Q9Y463)
T1 construct: Purified recombinant kinase was incubated with serial 3-fold dilutions of test compounds; purchased Reaction Biology Corporation
Experiment: DYRK1B kinase assay, Reaction Biology Corporation HotSpot technology (33P ATP)
Assay type: biochemical
Details: purified recombinant kinase, 10 µM ATP, 120 min, room temperature

## COc1ccc2c(c1)[nH]c1c(C)nccc12 [harmine, reference compound]
  IC50: 27.9 nM
